Values from PubChem BioAssay AID1259281 (Sanger Institute, 2017)
Test: 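Identify essential genes and drug-enhancing knock-downs among kinases and common colorectal mutated genes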 (primary screen). System: human COLO678 colorectal cancer cell line. Reagent: siRNA pool against human genes. Challenge: anchor drugs at fixed doses: BYL719 1 µM, cetuximab 5 µg/ml or trametinib 10 nM; DMSO vehicle for the siRNA-alone arm. Measurement: 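Surviving cells scaled to non-targeting siRNA control as replicate means; robust z-score for knock-down alone; synergy scores weigh knock-down with drug against the predicted combined effect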. Scale: robust z-score, siRNA alone: higher = more viable cells; strongly negative means essential; viability, siRNA alone: higher = more surviving cells. Rule for the call: 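Called essential (knock-down alone) if knock-down by itself drops cell number to a robust z-score under -3; all others no change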. Meaning of the calls: active = essential (knock-down alone); inactive = no change.
The deposit covers 794 reagents; below is a random part of them. Of all reagents, 22 (2.8%) were called active. 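Calls rest on knock-down alone only; drug synergy scores play no part in them.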 Unmarked entries are inactive. No viability above 1 is reported: the scale is capped. Further read-outs or replicates are left out here. Not stated in the record: the amount of reagent, the time to read-out.

target	robust z-score, siRNA alone	viability, siRNA alone (fraction of control)
TNK2	0.473	1
STK16	0.473	1
GUCY2EP	0.473	1
PI4KA	-1.11	0.95
STK38L	0.473	1
PRKCE	0.473	1
PLK2	-1.29	0.944
CDK18	0.473	1
ERBB3	-1.22	0.946
PDPK1	0.473	1
SGK1	0.473	1
PAK6	0.473	1
CDK5R1	-0.832	0.959
NUAK2	-1.47	0.938
STAG2	0.473	1
HK2	0.473	1

6 entries from above, ordered by “viability, siRNA alone (fraction of control)”, ascending.
target	robust z-score, siRNA alone	viability, siRNA alone (fraction of control)
PLK2	-1.29	0.944
ERBB3	-1.22	0.946
PI4KA	-1.11	0.95
STK38L	0.473	1
PRKCE	0.473	1
CDK18	0.473	1

Further entries follow:
target	robust z-score, siRNA alone	viability, siRNA alone (fraction of control)
CUL1	0.473	1
TLK1	0.473	1
STK31	0.473	1
CDK4	0.473	1
LMTK1	0.473	1
WIPF1	0.473	1
ULK1	0.473	1
CILK1	0.473	1
SRGAP3	0.473	1
EIF2AK4	0.473	1
CDKL5	0.473	1
PRKAG1	0.473	1
NIM1K	-1.71	0.931
CKMT1B	0.473	1
DDR1	0.473	1
MARK1	-0.692	0.963
CKMT2	-0.624	0.965
PDK3	-3.02 (active)	0.889
DLG3	0.473	1
PFKL	0.473	1
CDK19	-0.982	0.954
WNK2	0.473	1
POLR2B	0.473	1
MYLK	0.473	1
PAK1	0.473	1
CDKN2C	0.473	1
OXSR1	0.473	1
GRK5	0.473	1
CHKA	-3.03 (active)	0.889
EIF2AK3	0.473	1
PANK4	-1.45	0.939
TP53RK	0.473	1
EPHA1	0.473	1
MAPKAPK5	0.473	1
